The target in test [1] is C-luc ΔApaf-1 (truncated Apaf-1 lacking both WD-40 subdomains, fused to the C-terminal fragment of luciferase) (UniProt O14727). Nature of the test: SEC; S-100 extracts with N-luc ΔApaf-1 and C-luc ΔApaf-1 mixed 1:1, with or without cytochrome c and dATP, 15 min at 25 °C; Sephacryl 300 HR column; fractions (∼700 kDa to 158 kDa) immunoblotted. (In general: Size exclusion chromatography separates by hydrodynamic size, large species first.)

The target in test [2] is endogenous Apaf-1 (human (endogenous in HEK 293)) (UniProt O14727). Described as above.
Test [3] concerns the target T1, C-luc Apaf-1 (full length Apaf-1 fused through its N-terminus to the C-terminal fragment, amino acids 395-550, of P. pyralis luciferase, with C-terminal His-tag), O14727.
T1 chain: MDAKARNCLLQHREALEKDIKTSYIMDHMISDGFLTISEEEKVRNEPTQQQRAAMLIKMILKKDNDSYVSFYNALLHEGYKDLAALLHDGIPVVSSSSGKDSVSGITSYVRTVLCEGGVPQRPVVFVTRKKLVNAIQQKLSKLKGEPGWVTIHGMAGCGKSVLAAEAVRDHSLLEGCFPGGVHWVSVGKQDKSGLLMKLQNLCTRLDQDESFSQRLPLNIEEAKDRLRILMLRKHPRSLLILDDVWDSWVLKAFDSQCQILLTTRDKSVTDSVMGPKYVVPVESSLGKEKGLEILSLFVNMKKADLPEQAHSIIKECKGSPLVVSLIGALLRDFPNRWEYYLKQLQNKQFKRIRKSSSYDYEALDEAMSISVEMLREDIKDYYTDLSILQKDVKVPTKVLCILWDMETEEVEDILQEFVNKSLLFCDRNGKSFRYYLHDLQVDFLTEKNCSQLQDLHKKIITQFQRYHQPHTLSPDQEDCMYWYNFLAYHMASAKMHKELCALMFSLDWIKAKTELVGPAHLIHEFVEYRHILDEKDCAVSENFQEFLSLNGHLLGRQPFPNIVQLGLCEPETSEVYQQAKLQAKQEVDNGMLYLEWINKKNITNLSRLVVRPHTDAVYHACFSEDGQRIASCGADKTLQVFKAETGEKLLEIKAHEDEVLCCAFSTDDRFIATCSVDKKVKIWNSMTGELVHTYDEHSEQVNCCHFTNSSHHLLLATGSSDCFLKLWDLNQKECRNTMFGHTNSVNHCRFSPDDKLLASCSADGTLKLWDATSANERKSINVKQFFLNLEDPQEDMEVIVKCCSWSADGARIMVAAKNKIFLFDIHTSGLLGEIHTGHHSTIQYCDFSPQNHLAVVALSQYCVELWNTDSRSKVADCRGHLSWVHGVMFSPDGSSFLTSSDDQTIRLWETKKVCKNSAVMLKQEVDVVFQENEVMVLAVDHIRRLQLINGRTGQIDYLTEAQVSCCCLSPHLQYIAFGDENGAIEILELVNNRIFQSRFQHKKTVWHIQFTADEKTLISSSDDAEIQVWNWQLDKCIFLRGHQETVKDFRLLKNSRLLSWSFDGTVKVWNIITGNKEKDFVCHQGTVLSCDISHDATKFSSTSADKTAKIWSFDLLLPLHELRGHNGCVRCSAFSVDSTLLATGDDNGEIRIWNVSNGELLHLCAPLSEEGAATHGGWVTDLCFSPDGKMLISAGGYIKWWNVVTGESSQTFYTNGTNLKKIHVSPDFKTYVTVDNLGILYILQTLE
Kind of test: SEC; data not shown: extracts with N-luc and C-luc full length Apaf-1, upon addition of cytochrome c and dATP; Sephacryl 300. As to conditions: remark: other sources report otherwise.

In test [4] the target is T1, C-luc Apaf-1 (full length Apaf-1 fused …). Kind of test: pull-down; mixtures of cell extracts activated with or without cytochrome c and dATP (15 min, 25 °C), incubated with Ni-NTA agarose 1-2 h at 4 °C (His-tag on C-luc Apaf-1); washed with 20 mM and 165 mM imidazole; fractions immunoblotted with anti-Apaf-1. As to conditions: remark: other sources report otherwise. (In western blotting, separated proteins are transferred to a membrane and probed.)

Results are given in words; binding and its absence hold for the method and conditions named. For some assays here: In cells and extracts the contact can be indirect. Some binding calls cover weakened binding; strength is not graded here. For some assays here: Tags and fused reporters may be left off the sequences shown.

In the case of “N-luc ΔApaf-1 (truncated Apaf-1 lacking both WD-40 subdomains, fused to the N-terminal fragment of luciferase) (from UniProt O14727 1-589) (domain or fragment)”, the binding entry in test [1] and in test [2] was “binds” each time.
For the molecule “C-luc ΔApaf-1 (truncated Apaf-1 lacking both WD-40 subdomains, fused to the C-terminal fragment of luciferase) (from UniProt O14727 1-589) (domain or fragment)”, the binding result in test [2] is on record as “binds”.

B1: N-luc Apaf-1 (full length Apaf-1 fused through its N-terminus to the N-terminal fragment, amino acids 1-416, of P. pyralis luciferase), O14727 1-1248 (natural protein)
chain: T1 chain
Take B1: the binding entry in test [3] and in test [4] was “binds” in each case.

The values are drawn from publication PMC5856089.
